Our source for the binding values is patent US20100041873A1.

Assay [1] deals with Recombinant human IFN-λ (human). The experiment in a line: Western blot.
The target is the same in assay [2]. The experiment in a line: Western blot. The source holds these as a separate data set. (A western blot detects proteins with antibodies after separation by electrophoresis.)
In assay [3] the target is Recombinant human IL-21 (human). The experiment in a line: Western blot.
Assay [4] has the same target. The experiment in a line: direct ELISA. Background: In an ELISA, binding on a coated surface is turned into a signal by an enzyme label.
The target is the same in assay [5]. The experiment in a line: SPR (Biacore T100), mAb immobilized, 100 nM IL-21. A general note: Surface plasmon resonance follows binding to a sensor surface in real time, without labels.

Read-outs that look alike come from different tables or passages of the source. These are yes or no findings as the source states them, for the method shown. For some assays here: A result given as binding can be weak or reduced; the word gives no strength.

B1: Human anti-human IL-21 monoclonal antibody 366.552.11 (antibody, V domains shown)
VH: QVQLQESGPGLVKPSETLSLTCTVSGGSISSDFWGWIRQPPGKGLEWIGYISSRGSTNYNPSLKRRVTISVDTSRNQFSLKLSSVTAADTAVYYCARSAGVTDFDFWGQGTLVTVSS
VL: DIQMTQSPSSVSASVGDRVTITCRASQGISSWLAWYQHKPGKAPKLLIYVASSLQSGVPSRFSGSGSGTDFTLTISSLQPEDFATYYCQQANSFPLTFGGGTKVEIK
Regarding B1, the binding entry in assay [1] was “no binding”; in assay [2], “no binding (tested: 10 or 100 ng/ml mAb)”; in assay [3], “binds”; in assay [4] it was “binds”; in assay [5], “binds”.
